Results taken from the supplement of paper PMC12819154, “High-throughput peptide-centric local stability assay extends protein–ligand identification to membrane proteins, tissues and bacteria” (Nature Structural & Molecular Biology, 2025).
This is one part of the list. Small differences around the control level are noise.

Amino acid sequences for entries named in this document (tags omitted). A change or cut given only in a name is not applied to a line headed by its entry.
UniProt P04040: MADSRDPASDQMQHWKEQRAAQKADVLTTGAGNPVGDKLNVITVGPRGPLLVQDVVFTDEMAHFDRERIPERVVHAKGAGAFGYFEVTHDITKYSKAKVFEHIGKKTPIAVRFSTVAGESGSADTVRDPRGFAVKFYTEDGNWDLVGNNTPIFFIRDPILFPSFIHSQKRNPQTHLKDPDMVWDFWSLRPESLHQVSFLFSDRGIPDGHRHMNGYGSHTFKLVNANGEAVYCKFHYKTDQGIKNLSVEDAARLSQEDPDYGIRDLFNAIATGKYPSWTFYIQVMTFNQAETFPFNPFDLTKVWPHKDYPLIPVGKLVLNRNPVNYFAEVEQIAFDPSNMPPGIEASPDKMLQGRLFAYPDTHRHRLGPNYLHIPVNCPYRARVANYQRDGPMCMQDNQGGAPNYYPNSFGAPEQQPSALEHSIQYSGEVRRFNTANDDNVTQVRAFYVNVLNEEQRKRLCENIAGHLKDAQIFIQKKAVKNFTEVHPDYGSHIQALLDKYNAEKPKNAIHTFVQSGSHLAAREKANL
UniProt P07954: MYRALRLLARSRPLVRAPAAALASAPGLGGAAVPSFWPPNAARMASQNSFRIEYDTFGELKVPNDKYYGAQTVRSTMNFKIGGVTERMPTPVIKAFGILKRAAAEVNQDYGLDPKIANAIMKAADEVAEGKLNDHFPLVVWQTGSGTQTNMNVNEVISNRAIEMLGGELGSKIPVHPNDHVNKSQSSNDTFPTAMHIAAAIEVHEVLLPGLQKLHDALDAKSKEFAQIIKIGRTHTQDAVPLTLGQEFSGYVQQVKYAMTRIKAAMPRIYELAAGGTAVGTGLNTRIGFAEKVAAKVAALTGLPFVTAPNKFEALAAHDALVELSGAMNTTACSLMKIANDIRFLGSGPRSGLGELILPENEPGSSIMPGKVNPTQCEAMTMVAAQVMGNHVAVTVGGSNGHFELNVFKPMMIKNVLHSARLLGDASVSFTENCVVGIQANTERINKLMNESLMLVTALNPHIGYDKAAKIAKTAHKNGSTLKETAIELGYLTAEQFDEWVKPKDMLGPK
UniProt P04424, whole entry: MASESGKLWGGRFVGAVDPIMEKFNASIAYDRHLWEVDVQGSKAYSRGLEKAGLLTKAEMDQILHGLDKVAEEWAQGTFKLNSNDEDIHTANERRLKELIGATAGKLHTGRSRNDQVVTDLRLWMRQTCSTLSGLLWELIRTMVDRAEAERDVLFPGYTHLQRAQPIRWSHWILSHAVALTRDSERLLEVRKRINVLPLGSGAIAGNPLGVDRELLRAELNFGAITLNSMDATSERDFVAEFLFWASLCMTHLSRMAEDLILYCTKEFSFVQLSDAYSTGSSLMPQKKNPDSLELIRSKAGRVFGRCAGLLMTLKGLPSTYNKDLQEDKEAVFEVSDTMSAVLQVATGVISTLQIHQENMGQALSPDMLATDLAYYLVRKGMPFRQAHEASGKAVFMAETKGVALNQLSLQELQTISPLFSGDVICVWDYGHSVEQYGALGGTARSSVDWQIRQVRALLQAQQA
UniProt P12236: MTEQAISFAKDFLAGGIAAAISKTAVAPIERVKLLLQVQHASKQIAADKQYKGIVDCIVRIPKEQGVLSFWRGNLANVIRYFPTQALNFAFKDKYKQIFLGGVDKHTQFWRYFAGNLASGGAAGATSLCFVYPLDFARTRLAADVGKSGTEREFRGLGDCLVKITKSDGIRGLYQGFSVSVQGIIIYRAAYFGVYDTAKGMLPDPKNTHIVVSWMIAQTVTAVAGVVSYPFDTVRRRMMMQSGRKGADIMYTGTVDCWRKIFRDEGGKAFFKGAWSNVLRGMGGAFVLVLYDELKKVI
UniProt P0CJ78: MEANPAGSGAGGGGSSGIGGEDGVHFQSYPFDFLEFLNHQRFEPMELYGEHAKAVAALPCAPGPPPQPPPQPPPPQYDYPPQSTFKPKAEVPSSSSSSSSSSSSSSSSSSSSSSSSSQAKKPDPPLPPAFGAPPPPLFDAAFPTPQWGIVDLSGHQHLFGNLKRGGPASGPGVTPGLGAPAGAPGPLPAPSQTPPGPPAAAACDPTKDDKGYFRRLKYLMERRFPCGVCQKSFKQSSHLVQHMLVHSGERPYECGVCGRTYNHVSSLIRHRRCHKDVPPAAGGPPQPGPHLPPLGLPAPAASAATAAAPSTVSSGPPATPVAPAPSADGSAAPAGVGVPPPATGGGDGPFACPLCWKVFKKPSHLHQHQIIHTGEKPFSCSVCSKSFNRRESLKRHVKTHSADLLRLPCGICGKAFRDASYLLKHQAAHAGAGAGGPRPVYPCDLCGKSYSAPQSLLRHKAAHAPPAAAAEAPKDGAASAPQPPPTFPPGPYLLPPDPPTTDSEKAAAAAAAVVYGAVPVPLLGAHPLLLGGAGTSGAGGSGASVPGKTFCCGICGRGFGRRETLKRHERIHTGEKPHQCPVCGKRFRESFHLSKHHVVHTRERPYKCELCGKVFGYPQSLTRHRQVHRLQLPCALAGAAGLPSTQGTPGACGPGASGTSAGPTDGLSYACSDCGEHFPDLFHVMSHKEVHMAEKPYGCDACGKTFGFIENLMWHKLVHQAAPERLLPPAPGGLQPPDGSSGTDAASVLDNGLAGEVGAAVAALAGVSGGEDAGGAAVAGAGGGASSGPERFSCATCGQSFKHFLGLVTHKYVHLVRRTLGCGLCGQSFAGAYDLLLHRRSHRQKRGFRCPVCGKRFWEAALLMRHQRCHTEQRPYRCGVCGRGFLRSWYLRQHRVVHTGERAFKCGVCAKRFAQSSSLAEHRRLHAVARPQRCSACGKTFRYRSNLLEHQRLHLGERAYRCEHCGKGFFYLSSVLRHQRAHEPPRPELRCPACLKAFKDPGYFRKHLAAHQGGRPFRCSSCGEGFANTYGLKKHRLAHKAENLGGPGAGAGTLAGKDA
UniProt P02786, whole entry, looked up: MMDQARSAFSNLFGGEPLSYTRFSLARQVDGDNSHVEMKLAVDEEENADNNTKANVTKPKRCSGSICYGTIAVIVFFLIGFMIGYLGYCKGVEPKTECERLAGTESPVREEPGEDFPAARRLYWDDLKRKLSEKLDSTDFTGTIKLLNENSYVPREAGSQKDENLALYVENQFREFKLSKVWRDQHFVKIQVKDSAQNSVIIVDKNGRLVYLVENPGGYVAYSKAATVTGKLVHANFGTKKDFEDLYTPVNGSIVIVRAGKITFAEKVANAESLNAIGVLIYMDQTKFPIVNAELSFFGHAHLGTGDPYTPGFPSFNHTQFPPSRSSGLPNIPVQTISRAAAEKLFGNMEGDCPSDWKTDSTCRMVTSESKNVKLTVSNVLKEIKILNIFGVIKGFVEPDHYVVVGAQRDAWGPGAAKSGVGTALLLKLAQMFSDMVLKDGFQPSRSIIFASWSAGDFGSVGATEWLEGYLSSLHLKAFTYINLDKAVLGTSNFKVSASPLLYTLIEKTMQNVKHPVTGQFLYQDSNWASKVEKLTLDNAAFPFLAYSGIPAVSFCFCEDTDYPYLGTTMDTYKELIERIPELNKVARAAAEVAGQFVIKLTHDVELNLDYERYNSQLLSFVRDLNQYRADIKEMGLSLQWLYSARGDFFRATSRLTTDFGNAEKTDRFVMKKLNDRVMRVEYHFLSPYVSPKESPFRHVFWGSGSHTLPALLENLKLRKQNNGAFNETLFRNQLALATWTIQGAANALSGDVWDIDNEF
UniProt P02795: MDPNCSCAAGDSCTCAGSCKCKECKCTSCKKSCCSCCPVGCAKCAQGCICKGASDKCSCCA
UniProt P0DTW1: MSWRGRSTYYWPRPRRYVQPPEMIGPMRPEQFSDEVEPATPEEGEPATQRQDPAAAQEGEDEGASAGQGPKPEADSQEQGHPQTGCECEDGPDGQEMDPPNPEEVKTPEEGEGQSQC
UniProt P0DPD7: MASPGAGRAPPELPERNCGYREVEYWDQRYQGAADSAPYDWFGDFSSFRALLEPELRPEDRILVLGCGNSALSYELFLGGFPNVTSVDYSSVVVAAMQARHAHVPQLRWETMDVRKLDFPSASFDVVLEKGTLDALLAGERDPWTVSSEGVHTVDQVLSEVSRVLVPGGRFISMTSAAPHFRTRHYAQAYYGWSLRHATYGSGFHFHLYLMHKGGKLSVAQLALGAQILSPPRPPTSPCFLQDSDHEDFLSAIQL
UniProt P0C7P0: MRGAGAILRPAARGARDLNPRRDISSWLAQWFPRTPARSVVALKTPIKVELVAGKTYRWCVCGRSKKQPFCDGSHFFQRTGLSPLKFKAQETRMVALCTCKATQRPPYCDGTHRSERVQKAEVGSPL
UniProt P11441: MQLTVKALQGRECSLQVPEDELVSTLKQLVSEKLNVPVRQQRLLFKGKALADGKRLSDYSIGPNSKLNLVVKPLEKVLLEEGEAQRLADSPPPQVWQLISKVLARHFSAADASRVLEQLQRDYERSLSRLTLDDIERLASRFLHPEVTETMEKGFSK
UniProt P04406: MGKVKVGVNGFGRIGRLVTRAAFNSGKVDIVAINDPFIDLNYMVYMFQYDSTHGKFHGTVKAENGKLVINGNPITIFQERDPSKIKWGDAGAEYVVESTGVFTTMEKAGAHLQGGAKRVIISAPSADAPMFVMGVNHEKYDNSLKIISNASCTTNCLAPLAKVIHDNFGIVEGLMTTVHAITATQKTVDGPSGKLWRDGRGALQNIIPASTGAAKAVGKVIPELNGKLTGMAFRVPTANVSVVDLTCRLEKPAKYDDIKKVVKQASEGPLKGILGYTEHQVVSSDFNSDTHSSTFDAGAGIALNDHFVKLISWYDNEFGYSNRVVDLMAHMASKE
UniProt P05386, whole entry: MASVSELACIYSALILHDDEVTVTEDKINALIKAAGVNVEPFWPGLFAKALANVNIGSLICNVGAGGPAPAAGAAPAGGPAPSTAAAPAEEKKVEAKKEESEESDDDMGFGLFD
UniProt P00505: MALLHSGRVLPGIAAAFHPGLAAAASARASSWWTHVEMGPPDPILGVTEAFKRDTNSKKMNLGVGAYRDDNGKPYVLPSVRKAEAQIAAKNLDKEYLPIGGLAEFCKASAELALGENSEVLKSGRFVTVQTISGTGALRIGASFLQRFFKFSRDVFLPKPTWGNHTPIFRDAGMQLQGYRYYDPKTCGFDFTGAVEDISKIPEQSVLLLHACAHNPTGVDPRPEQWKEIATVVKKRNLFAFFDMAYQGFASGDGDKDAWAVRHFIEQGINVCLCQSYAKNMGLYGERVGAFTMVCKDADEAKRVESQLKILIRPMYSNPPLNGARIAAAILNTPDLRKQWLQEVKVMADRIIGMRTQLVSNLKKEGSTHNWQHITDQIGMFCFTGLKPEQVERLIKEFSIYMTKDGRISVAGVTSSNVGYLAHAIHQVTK
UniProt P11117: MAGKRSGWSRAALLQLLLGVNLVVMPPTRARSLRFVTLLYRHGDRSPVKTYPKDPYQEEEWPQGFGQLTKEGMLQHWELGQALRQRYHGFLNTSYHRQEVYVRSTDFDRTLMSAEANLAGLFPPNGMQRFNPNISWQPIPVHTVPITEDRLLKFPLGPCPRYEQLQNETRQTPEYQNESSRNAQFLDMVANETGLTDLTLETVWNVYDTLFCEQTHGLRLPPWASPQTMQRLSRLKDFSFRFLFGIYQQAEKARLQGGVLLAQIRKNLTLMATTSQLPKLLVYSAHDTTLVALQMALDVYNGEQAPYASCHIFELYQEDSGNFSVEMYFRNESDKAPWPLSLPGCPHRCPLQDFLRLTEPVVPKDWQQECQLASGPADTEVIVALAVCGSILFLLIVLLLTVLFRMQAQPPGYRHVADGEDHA
UniProt P10809, whole entry: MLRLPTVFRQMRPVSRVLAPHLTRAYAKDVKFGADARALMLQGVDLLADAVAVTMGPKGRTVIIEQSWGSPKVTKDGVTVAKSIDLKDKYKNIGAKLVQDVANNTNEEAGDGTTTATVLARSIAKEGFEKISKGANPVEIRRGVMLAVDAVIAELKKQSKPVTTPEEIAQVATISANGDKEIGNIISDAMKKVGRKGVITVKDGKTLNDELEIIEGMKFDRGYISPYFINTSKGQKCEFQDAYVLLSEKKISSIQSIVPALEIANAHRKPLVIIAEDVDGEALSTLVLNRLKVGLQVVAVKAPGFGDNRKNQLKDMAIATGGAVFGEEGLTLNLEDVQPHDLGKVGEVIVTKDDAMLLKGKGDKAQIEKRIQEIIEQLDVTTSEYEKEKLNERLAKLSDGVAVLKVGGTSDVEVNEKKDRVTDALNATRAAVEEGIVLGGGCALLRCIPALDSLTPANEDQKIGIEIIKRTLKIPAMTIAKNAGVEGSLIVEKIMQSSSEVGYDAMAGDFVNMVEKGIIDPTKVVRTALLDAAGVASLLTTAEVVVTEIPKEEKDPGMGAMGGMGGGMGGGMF
UniProt P04731: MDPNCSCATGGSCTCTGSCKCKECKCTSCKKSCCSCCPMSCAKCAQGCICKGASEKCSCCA
UniProt P12004, whole entry: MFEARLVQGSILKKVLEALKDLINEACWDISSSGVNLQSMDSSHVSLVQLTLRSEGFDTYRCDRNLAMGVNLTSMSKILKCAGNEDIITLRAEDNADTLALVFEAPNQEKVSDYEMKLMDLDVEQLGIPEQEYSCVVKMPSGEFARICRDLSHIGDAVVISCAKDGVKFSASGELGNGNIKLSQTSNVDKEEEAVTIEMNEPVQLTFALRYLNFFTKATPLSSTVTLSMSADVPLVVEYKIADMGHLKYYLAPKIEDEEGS

compound: CN[C@@H]1C[C@H]2O[C@@](C)([C@@H]1OC)n1c3ccccc3c3c4c(c5c6ccccc6n2c5c31)C(=O)NC4 [staurosporine]; test: log2 fold change of tryptic peptide abundance, ligand vs vehicle (limited proteolysis) (log2 ratio); higher = more trypsin-susceptible (destabilized); details: ligand concentration: 20 uM; sample: K562 cleared lysate; digestion: 4 min, 22 C (HT-PELSA RT4min, Orbitrap Astral)

| Target | log2 fold change |
| --- | --- |
| SPTA1 (peptide sequence: ADVVEAWIADKETSLK, peptide start residue: 1937) (UniProt P02549) | 0.218 |
| CTSL (peptide sequence: EKGYVTPVK, peptide start residue: 122) (UniProt P07711) | 0.38 |
| CAT (peptide sequence: NAIHTFVQSGSHLAAR, peptide start residue: 507) (UniProt P04040) | -0.139 |
| IMPDH2 (peptide sequence: HGFCGIPITDTGR, peptide start residue: 137) (UniProt P12268) | 0.184 |
| FH (peptide sequence: AADEVAEGK, peptide start residue: 123) (UniProt P07954) | -0.189 |
| ASL (peptide sequence: NPDSLELIR, peptide start residue: 289) (UniProt P04424) | 0.222 |
| TIMP1 (peptide sequence: GFQALGDAADIR, peptide start residue: 71) (UniProt P01033) | 0.266 |
| UniProt P0CG47 (peptide sequence: TITLEVEPSDTIENVKAK, peptide start residue: 12) | 0.215 |
| SLC25A6 (peptide sequence: EQGVLSFWR, peptide start residue: 64) (UniProt P12236) | -0.137 |
| UniProt P0CJ78 (peptide sequence: GFFYLSSVLR, peptide start residue: 968) | 0.453 |
| CCNE2 (peptide sequence: ILTAAALCHFTSIEVVKK, peptide start residue: 295) (UniProt O96020) | -0.0358 |
| PGK1 (peptide sequence: NNQITNNQR, peptide start residue: 31) (UniProt P00558) | -0.232 |
| TFRC (peptide sequence: QVDGDNSHVEMK, peptide start residue: 28) (UniProt P02786) | -0.0938 |
| MT2A (peptide sequence: KSCCSCCPVGCAKCAQGCICK, peptide start residue: 31) (UniProt P02795) | -0.219 |
| MYL4 (peptide sequence: ESNGTVMGAELR, peptide start residue: 145) (UniProt P12829) | 0.241 |
| UniProt P0DTW1 (peptide sequence: TPEEGEGQSQC, peptide start residue: 107) | 0.0532 |
| UniProt P05019 (peptide sequence: RLEMYCAPLKPAK, peptide start residue: 104) | -0.144 |
| EEF1AKMT4 (peptide sequence: EVEYWDQR, peptide start residue: 22) (UniProt P0DPD7) | -0.113 |
| CISD3 (peptide sequence: ATQRPPYCDGTHR, peptide start residue: 102) (UniProt P0C7P0) | 1.13 |
| CYBA (peptide sequence: QPPSNPPPRPPAEAR, peptide start residue: 150) (UniProt P13498) | 0.131 |

| Target | log2 fold change |
| --- | --- |
| ALDH1A1 (peptide sequence: LECGGGPWGNK, peptide start residue: 368) (UniProt P00352) | -0.171 |
| VIL1 (peptide sequence: LMEVMNHVLGK, peptide start residue: 222) (UniProt P09327) | 0.721 |
| GNAI2 (peptide sequence: MIDKNLR, peptide start residue: 18) (UniProt P04899) | 0.3 |
| UBL4A (peptide sequence: LTLDDIER, peptide start residue: 130) (UniProt P11441) | 0.353 |
| GAPDH (peptide sequence: GKVKVGVNGFGR, peptide start residue: 2) (UniProt P04406) | 1.55 |
| UniProt P10276 (peptide sequence: AACLDILILR, peptide start residue: 263) | 0.102 |
| RPLP1 (peptide sequence: KEESEESDDDMGFGLFD, peptide start residue: 99) (UniProt P05386) | -0.142 |
| GOT2 (peptide sequence: KAEAQIAAK, peptide start residue: 82) (UniProt P00505) | 0.451 |
| ACP2 (peptide sequence: HVADGEDHA, peptide start residue: 415) (UniProt P11117) | -0.0503 |
| COX4I1 (peptide sequence: FKESFAEMNR, peptide start residue: 86) (UniProt P13073) | -0.61 |
| HSPD1 (peptide sequence: IPAMTIAK, peptide start residue: 474) (UniProt P10809) | -0.244 |
| COX5B (peptide sequence: EDPNLVPSISNKR, peptide start residue: 75) (UniProt P10606) | 0.213 |
| GLA (peptide sequence: ALLQDKDVIAINQDPLGK, peptide start residue: 309) (UniProt P06280) | 0.257 |
| ISG15 (peptide sequence: LTQTVAHLK, peptide start residue: 100) (UniProt P05161) | 0.346 |
| EPRS (peptide sequence: KDPSKNQGGGLSSSGAGEGQGPK, peptide start residue: 987) (UniProt P07814) | -0.187 |
| CTSB (peptide sequence: HYGYNSYSVSNSEKDIMAEIYK, peptide start residue: 224) (UniProt P07858) | 0.423 |
| ATP1A1 (peptide sequence: YEPAAVSEQGDKK, peptide start residue: 10) (UniProt P05023) | -0.475 |
| UniProt P04731 (peptide sequence: CAQGCICK, peptide start residue: 44) | -0.0444 |
| PCNA (peptide sequence: MPSGEFAR, peptide start residue: 139) (UniProt P12004) | 0.167 |

A second format for some results above.
Target | log2 fold change
GOT2 (peptide sequence: KAEAQIAAK, peptide start residue: 82) (UniProt P00505) | 0.451
COX4I1 (peptide sequence: FKESFAEMNR, peptide start residue: 86) (UniProt P13073) | -0.61
EPRS (peptide sequence: KDPSKNQGGGLSSSGAGEGQGPK, peptide start residue: 987) (UniProt P07814) | -0.187
